Measurements reported in PubChem BioAssay AID1259405 (NCATS, 2018).

- Aim: 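Mouse-designed siRNAs used to find CHO productivity engineering targets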 (primary screen)
- Cells: Chinese hamster CHO-K1 ovary cells with stable secreted eGFP expression
- Reagents: single siRNA against mouse genes, 0.8 pmol siRNA per well (2 µl of 400 nM stock)
- Time to read-out: 3 days
- Detection: 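Per-well intracellular GFP measured by laser scanning cytometry, plus viability from ATP luminescence, each relative to plate median of non-targeting control wells, in %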
- Reading the numbers: GFP, % of control: higher = more GFP per well, higher productivity; viability (ATP), % of control: higher = more viable cells (more ATP)
- Hit rule: 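Called active when intracellular GFP, relative to negative control, is at or above 120%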
This is one part, drawn at random, of about 50,000 reagents tested. About 4,000 of all reagents (8%) were called active. 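Mouse siRNA library applied to hamster cells; one well for each siRNA.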 The numbers tell different reagents against one gene apart. Reagent sequences are not shown.

{"gene": "R3hdm4", "reagent": 1, "GFP, % of control": 52.9, "viability (ATP), % of control": 62, "outcome": "inactive"}
{"gene": "R3hdm4", "reagent": 2, "GFP, % of control": 56.6, "viability (ATP), % of control": 80, "outcome": "inactive"}
{"gene": "R3hdm4", "reagent": 3, "GFP, % of control": 140, "viability (ATP), % of control": 96, "outcome": "active"}
{"gene": "Ppp1r13b", "reagent": 1, "GFP, % of control": 81.6, "viability (ATP), % of control": 82.9, "outcome": "inactive"}
{"gene": "Ppp1r13b", "reagent": 2, "GFP, % of control": 100, "viability (ATP), % of control": 83.2, "outcome": "inactive"}
{"gene": "Ash1l", "reagent": 1, "GFP, % of control": 18.1, "viability (ATP), % of control": 22.5, "outcome": "inactive"}
{"gene": "Ash1l", "reagent": 2, "GFP, % of control": 87.3, "viability (ATP), % of control": 86.4, "outcome": "inactive"}
{"gene": "Ash1l", "reagent": 3, "GFP, % of control": 73.5, "viability (ATP), % of control": 66.9, "outcome": "inactive"}
{"gene": "Tor2a", "reagent": 1, "GFP, % of control": 147, "viability (ATP), % of control": 116, "outcome": "active"}
{"gene": "Tor2a", "reagent": 2, "GFP, % of control": 85, "viability (ATP), % of control": 91.1, "outcome": "inactive"}
{"gene": "Tor2a", "reagent": 3, "GFP, % of control": 101, "viability (ATP), % of control": 97.7, "outcome": "inactive"}
{"gene": "Rhox1", "reagent": 1, "GFP, % of control": 142, "viability (ATP), % of control": 73.1, "outcome": "active"}
{"gene": "Rhox1", "reagent": 2, "GFP, % of control": 99.1, "viability (ATP), % of control": 105, "outcome": "inactive"}
{"gene": "Rhox1", "reagent": 3, "GFP, % of control": 34.4, "viability (ATP), % of control": 43.2, "outcome": "inactive"}
{"gene": "Rnpep", "reagent": 1, "GFP, % of control": 167, "viability (ATP), % of control": 99.3, "outcome": "active"}
{"gene": "Rnpep", "reagent": 2, "GFP, % of control": 70.8, "viability (ATP), % of control": 56.7, "outcome": "inactive"}
{"gene": "Rnpep", "reagent": 3, "GFP, % of control": 47.7, "viability (ATP), % of control": 61.9, "outcome": "inactive"}

Part of the list above, set out differently:
gene | reagent | GFP, % of control | viability (ATP), % of control | outcome
Tor2a | 2 | 85 | 91.1 | inactive
Tor2a | 3 | 101 | 97.7 | inactive
